Results as given in the supplement of paper PMC3334620.
Over roughly 33,000 sequences, “E-score (-0.5 to 0.5)” has its median near -0.016; the highest 2% begin near 0.3. Some of the results follow.

Each sequence was assayed against T1, Yer184c (UniProt P39961) (assay: PBM E-score (8-mer binding enrichment) (E-score (-0.5 to 0.5)); higher = stronger / more preferred TF binding). Settings: protein concentration: 100 nM; construct: GST-full length.
T1 sequence: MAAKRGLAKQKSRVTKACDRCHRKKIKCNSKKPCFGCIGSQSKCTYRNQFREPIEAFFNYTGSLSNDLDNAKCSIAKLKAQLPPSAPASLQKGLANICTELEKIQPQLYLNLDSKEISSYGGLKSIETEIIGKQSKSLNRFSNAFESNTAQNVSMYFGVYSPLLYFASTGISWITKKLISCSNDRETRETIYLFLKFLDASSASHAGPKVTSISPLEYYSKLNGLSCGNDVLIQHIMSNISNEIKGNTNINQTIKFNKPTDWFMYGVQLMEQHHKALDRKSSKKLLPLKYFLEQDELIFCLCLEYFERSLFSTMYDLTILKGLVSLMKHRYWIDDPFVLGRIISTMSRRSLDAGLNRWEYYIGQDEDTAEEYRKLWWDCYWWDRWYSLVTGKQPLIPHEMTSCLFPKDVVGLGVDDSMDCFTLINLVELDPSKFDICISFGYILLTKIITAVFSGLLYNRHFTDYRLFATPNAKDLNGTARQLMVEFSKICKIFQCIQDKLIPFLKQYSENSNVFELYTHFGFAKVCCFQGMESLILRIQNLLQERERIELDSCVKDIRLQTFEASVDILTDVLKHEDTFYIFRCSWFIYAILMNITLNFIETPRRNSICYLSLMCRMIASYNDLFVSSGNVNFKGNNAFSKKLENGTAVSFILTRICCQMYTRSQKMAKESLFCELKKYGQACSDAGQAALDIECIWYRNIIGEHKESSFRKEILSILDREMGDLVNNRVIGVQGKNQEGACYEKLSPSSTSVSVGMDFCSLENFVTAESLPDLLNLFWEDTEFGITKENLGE
Procedure, shortened: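 E-scores (a modified Wilcoxon-Mann-Whitney statistic) were assigned by the Universal PBM Analysis Suite to every ungapped eight-base word pooled with its reverse complement. The input came from universal all-10-mer Agilent arrays made double-stranded by primer extension and probed with GST-tagged yeast transcription factors at about 100-200 nM. Fluorescent anti-GST detected bound protein, and masliner normalised the scans.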

Row | Sequence | PBM E-score
1 | GATAAGAA | 0.262
2 | TGAAGACA | 0.0218
3 | CGCGCCGA | 0.256
4 | CCCGGCCA | 0.209
5 | AGCCGTAC | 0.0662
6 | CGAGCATC | -0.0678
7 | AGAACGAA | 0.0785
8 | ACGTCCAC | -0.205
9 | AGCATAAA | 0.0593
10 | GAACCAAA | -0.0175
11 | AGCAGTCG | -0.112
12 | AAAGGTAT | -0.0498
13 | ACCGAAAT | 0.218
14 | AGCCACCC | -0.224
15 | CAACTAAG | 0.0457
16 | GCTGCGCC | -0.221
17 | TTACGTAA | -0.071
18 | AGCCCTTC | -0.24
19 | CAAGTCTC | -0.227
20 | CAGCTGCA | -0.138
21 | TAAAGTGA | 0.12
22 | ACGGTAAA | 0.162
23 | ACTCCAAG | -0.21
24 | GCGGTCAA | 0.0846
25 | CCGCGGTC | 0.205

Row | Sequence | PBM E-score
26 | AAGATAAT | 0.243
27 | GCCCTAGC | -0.162
28 | CATATTTA | 0.159
29 | TCACGTCA | -0.0647
30 | GTCTAGCA | -0.00436
31 | TTTGCAAA | 0.0482
32 | AGTGGGGC | -0.45
33 | GAAGTGCA | -0.0355
34 | ACCTGCAG | -0.262
35 | AACTGTCA | -0.0612
36 | AGTTGCGA | -0.00944
37 | AGCTAGTC | -0.11
38 | CATCTCGC | -0.077
39 | CCCTCGAG | -0.237
40 | CCTATGAG | -0.206
41 | AAGACGTC | -0.141
42 | AGATGACG | -0.11
43 | AGAGCGAC | -0.0903
44 | AAAAACGC | 0.166
45 | GAGTTGCC | 0.11
46 | ACCCTTGA | -0.0356
47 | ACAGTGTA | -0.0208
48 | ACAATGCG | -0.0482
49 | TCGGGTCA | 0.242
50 | CGCTATAA | 0.0885

Row | Sequence | PBM E-score
51 | AGTTGTTA | 0.076
52 | ATCCGCCG | 0.252
53 | AAGCGTGT | -0.217
54 | AGCCAGTG | -0.218
55 | AACACTCT | 0.0717
56 | CCCTGCGG | -0.102
57 | ACAATGTC | 0.0746
58 | AAAAGTGG | 0.0777
59 | CCAAATGC | -0.136
60 | AGTACTAT | 0.165
61 | ATTACTCA | 0.103
62 | ACTATGCC | 0.0643
63 | CCCGATGA | 0.131
64 | TATGGCGA | -0.0993
65 | ATAGAGAA | 0.103
66 | CAGTCAAA | 0.0847
67 | ACAGGCAC | -0.241
68 | CGTGACTA | 0.0856
69 | CTAATCGA | 0.155
70 | ACTCTGAA | 0.0196
71 | AATACCGA | 0.165
72 | CTTACAGA | 0.0561
73 | AGCGCAGC | -0.0783
74 | AGATAAGA | 0.123
75 | CAATGCAG | -0.0658

Row | Sequence | PBM E-score
76 | AGGAGCAT | -0.0221
77 | AGTTAACC | -0.0162
78 | CGAGACGC | -0.0192
79 | AATACATT | 0.122
80 | CGCATAGA | -0.173
81 | AAACGCTT | -0.0758
82 | TCTTAACA | 0.0228
83 | CACTTGAA | -0.0318
84 | CCCCCTTA | -0.348
85 | AGCTTGAC | -0.156
86 | GAATCACA | 0.0701
87 | CCCTACTC | -0.00528
88 | AGTGACAC | -0.00725
89 | AATCTACA | 0.0892
90 | GGCGTTAC | 0.0296
91 | ACCTTAGG | -0.241
92 | AGATACCG | 0.162
93 | ACGTAGGC | -0.162
94 | CTTACATA | 0.0227
95 | CAATCGTC | -0.14
96 | ACGAAGGG | -0.264
97 | CCGTCACA | -0.148
98 | TACTTTCA | 0.0515
99 | AAAGCTCT | -0.141
100 | AACCTATC | -0.142

In another format: results already given.
ACCTTAGG
  PBM E-score = -0.241
AGATACCG
  PBM E-score = 0.162

Additional results

Row | Sequence | PBM E-score
101 | CTTGGCTC | -0.17
102 | AGCGGAGG | -0.193
103 | GACCGATC | 0.0491
104 | ATTGAATG | 0.138
105 | AAGGTCCA | -0.0653
106 | GTGTTGAA | -0.0251
107 | AGAAGCCC | 0.0144
108 | CATAGGTC | -0.0636
109 | GGGCCCCA | -0.298
110 | ATCCTGCA | -0.1
111 | AGTCCTCA | -0.0656
112 | CAAGTACG | -0.168
113 | CGCAGACG | 0.0631
114 | CAGACGAG | -0.0786
115 | CGCTTAAC | -0.001
116 | CCGTATCG | -0.183
117 | CCGCGCAG | 0.0631
118 | GGGCCACA | -0.227
119 | ATTCGCGC | 0.0265
120 | CCGTCGTC | -0.0939
121 | AGCCGATA | 0.142
122 | GGTCTGAA | 0.119
123 | CTTGACTC | -0.197
124 | GCTGTGGA | -0.0283
125 | AAATGGCC | -0.183

Row | Sequence | PBM E-score
126 | ACAGACGG | -0.11
127 | ACTTACGG | 0.219
128 | ATGAGGCC | -0.0547
129 | CCCGTGAA | -0.106
130 | AGGCTTCC | 0.1
131 | GAATCGCC | -0.0215
132 | TTGGTAAA | 0.146
133 | CGGATGTA | 0.285
134 | AGGAGGCA | -0.209
135 | GTAGAAAA | 0.193
136 | TGATCTAA | 0.103
137 | AACATCAC | -0.121
138 | GGAATCGA | 0.0553
139 | TTACAGAA | -0.00633
140 | GTATCACA | 0.108
141 | ATACACAC | 0.0704
142 | AGTCGTGG | -0.191
143 | GAACAAAC | 0.261
144 | CAAAGGGA | -0.166
145 | TGCGTTAA | 0.0383
146 | ACGGCGGA | 0.094
147 | CCGGGCCC | 0.262
148 | AGTACCAA | 0.144
149 | AGCACGTC | -0.0289
150 | CACGGTTA | 0.218

Looked up one by one from above (6):
Row | Sequence | PBM E-score
118 | GGGCCACA | -0.227
113 | CGCAGACG | 0.0631
24 | GCGGTCAA | 0.0846
34 | ACCTGCAG | -0.262
89 | AATCTACA | 0.0892
79 | AATACATT | 0.122

More entries:

Row | Sequence | PBM E-score
151 | CCATAGAA | 0.0492
152 | CAAATTCC | 0.181
153 | AAATGTAT | 0.169
154 | CAAGCCGA | 0.324
155 | GGTCTTCA | -0.157
156 | AACATTAT | 0.177
157 | CAGATGTA | -0.231
158 | AAGCACAG | 0.0653
159 | AAAGCAAC | 0.0724
160 | AACAGTCG | 0.0243
161 | GGGGATAA | -0.116
162 | CCCTTCGC | -0.218
163 | ACTCCGGG | 0.265
164 | TCTAGCCA | -0.0838
165 | ACAGTATG | -0.0597
166 | AGTCCACA | -0.103
167 | CACTTCCA | -0.0121
168 | AGCGCCTC | -0.0318
169 | CGGGTTCA | 0.278
170 | ACCCCACT | -0.205
171 | CATATAAC | 0.115
172 | ATCAACGA | 0.117
